Measurements as given in article PMC8284019.
Results are given in words; binding and its absence hold for the method and conditions named. Binding seen in cells or lysates may run through a third protein. Some binding calls cover weakened binding; strength is not graded here.

Protein sequences, listed by entry. Tags and fused reporters are not part of them.
UniProt O95076: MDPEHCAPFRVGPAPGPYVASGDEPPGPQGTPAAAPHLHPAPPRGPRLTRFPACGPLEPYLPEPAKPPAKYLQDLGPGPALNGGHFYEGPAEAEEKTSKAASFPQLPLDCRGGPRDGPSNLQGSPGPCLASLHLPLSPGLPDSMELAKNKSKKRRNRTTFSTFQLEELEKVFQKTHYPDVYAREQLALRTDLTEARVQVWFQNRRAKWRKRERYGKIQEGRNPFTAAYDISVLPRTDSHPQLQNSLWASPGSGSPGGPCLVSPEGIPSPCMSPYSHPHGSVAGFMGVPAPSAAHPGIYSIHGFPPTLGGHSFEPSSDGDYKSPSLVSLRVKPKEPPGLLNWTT

T1: lysine demethylase 2B (human) (UniProt Q8NHM5)
T1 sequence: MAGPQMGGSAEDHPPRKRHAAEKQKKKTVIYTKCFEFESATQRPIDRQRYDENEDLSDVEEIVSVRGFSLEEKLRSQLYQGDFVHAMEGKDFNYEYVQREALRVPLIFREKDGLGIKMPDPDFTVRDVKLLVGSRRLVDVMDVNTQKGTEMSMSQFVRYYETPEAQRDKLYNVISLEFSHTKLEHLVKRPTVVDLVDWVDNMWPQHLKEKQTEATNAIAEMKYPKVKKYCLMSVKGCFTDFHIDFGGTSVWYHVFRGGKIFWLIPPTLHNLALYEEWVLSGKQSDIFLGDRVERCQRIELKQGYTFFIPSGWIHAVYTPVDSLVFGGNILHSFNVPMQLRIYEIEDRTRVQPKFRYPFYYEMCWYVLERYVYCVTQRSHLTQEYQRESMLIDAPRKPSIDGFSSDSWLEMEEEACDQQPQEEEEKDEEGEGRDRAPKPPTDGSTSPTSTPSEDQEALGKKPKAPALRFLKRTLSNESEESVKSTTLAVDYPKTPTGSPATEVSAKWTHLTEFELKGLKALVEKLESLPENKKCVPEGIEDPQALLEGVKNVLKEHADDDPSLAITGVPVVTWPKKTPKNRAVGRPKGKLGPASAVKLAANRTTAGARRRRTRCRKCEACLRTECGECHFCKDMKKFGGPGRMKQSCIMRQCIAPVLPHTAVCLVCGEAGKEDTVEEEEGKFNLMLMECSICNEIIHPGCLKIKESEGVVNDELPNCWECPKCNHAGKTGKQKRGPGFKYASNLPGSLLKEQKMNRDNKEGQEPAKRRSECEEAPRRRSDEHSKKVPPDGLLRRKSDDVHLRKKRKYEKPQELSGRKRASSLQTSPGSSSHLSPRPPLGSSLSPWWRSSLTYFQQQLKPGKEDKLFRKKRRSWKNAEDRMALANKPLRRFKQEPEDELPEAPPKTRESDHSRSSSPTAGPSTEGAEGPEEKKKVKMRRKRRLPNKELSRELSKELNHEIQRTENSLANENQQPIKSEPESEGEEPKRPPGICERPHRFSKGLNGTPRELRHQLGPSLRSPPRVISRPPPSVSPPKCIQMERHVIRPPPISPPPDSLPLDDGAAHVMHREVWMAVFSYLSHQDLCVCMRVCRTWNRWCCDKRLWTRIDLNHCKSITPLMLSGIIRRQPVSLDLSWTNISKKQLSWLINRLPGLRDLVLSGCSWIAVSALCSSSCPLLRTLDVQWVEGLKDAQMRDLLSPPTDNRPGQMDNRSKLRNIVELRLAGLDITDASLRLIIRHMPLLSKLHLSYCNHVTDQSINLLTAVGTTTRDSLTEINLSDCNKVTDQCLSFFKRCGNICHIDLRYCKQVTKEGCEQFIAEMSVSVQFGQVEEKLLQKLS


How the values were obtained:
[1] = biological target: T1, lysine demethylase 2B (human); experiment: co-IP; C33A or ME180 cells transfected with expression vector of ALX3 or KDM2B, 48 h, lysed in RIPA buffer; IP with Protein G plus-Agarose and anti-Flag Affinity Gel; ALX3 and KDM2B in the precipitates detected by western blot
ALX3 (human) = ALX3 (human) (UniProt O95076); experiment: as above

| binding [1] | binding (ALX3 (human)) | Molecule |
| --- | --- | --- |
| binds |  | ALX3 (from UniProt O95076 1-343) |
|  | binds | lysine demethylase 2B (protein, UniProt Q8NHM5 1-1336) MAGPQMGGSAEDHPPRKRHAAEKQKKKTVIYTKCFEFESATQRPIDRQRYDENEDLSDVEEIVSVRGFSLEEKLRSQLYQGDFVHAMEGKDFNYEYVQREALRVPLIFREKDGLGIKMPDPDFTVRDVKLLVGSRRLVDVMDVNTQKGTEMSMSQFVRYYETPEAQRDKLYNVISLEFSHTKLEHLVKRPTVVDLVDWVDNMWPQHLKEKQTEATNAIAEMKYPKVKKYCLMSVKGCFTDFHIDFGGTSVWYHVFRGGKIFWLIPPTLHNLALYEEWVLSGKQSDIFLGDRVERCQRIELKQGYTFFIPSGWIHAVYTPVDSLVFGGNILHSFNVPMQLRIYEIEDRTRVQPKFRYPFYYEMCWYVLERYVYCVTQRSHLTQEYQRESMLIDAPRKPSIDGFSSDSWLEMEEEACDQQPQEEEEKDEEGEGRDRAPKPPTDGSTSPTSTPSEDQEALGKKPKAPALRFLKRTLSNESEESVKSTTLAVDYPKTPTGSPATEVSAKWTHLTEFELKGLKALVEKLESLPENKKCVPEGIEDPQALLEGVKNVLKEHADDDPSLAITGVPVVTWPKKTPKNRAVGRPKGKLGPASAVKLAANRTTAGARRRRTRCRKCEACLRTECGECHFCKDMKKFGGPGRMKQSCIMRQCIAPVLPHTAVCLVCGEAGKEDTVEEEEGKFNLMLMECSICNEIIHPGCLKIKESEGVVNDELPNCWECPKCNHAGKTGKQKRGPGFKYASNLPGSLLKEQKMNRDNKEGQEPAKRRSECEEAPRRRSDEHSKKVPPDGLLRRKSDDVHLRKKRKYEKPQELSGRKRASSLQTSPGSSSHLSPRPPLGSSLSPWWRSSLTYFQQQLKPGKEDKLFRKKRRSWKNAEDRMALANKPLRRFKQEPEDELPEAPPKTRESDHSRSSSPTAGPSTEGAEGPEEKKKVKMRRKRRLPNKELSRELSKELNHEIQRTENSLANENQQPIKSEPESEGEEPKRPPGICERPHRFSKGLNGTPRELRHQLGPSLRSPPRVISRPPPSVSPPKCIQMERHVIRPPPISPPPDSLPLDDGAAHVMHREVWMAVFSYLSHQDLCVCMRVCRTWNRWCCDKRLWTRIDLNHCKSITPLMLSGIIRRQPVSLDLSWTNISKKQLSWLINRLPGLRDLVLSGCSWIAVSALCSSSCPLLRTLDVQWVEGLKDAQMRDLLSPPTDNRPGQMDNRSKLRNIVELRLAGLDITDASLRLIIRHMPLLSKLHLSYCNHVTDQSINLLTAVGTTTRDSLTEINLSDCNKVTDQCLSFFKRCGNICHIDLRYCKQVTKEGCEQFIAEMSVSVQFGQVEEKLLQKLS |
